These results are taken from article PMC12700909.

The chains behind the UniProt entries cited, without tags or fusion partners.
UniProt P07699: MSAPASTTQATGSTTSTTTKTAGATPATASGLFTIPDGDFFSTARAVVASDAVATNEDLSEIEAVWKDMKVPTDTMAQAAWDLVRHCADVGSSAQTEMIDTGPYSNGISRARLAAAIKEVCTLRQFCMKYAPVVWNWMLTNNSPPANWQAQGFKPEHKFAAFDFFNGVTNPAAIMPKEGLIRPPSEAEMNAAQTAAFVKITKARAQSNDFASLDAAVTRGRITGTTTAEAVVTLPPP

Results are given in words; binding and its absence hold for the method and conditions named. Some binding calls cover weakened binding; strength is not graded here.

Experiment [1] addresses potato virus X (PVX) coat protein (CP), native (potato virus X) (UniProt P07699). In words: SEC; VLPs assembled in vitro from purified CP on EGFP-SL1 mRNA (50:1 CP:RNA by mass) or circRNA (40:1), purified through a sucrose cushion; Superose 6 Increase, 10 mM Tris-HCl pH 8.0, 50 mM NaCl, 0.1 mg/mL, compared with free CP and native PVX; the assembly is templated on RNA; both purified. In general terms: In gel filtration, larger molecules generally elute earlier.

The target is the same in experiment [2]. The experiment in a line: co-sedimentation; rCP-His and native CP mixed at ratios 7:3 to 1:9, assembled on PVX gRNA (CP:RNA 50:1 by mass); VLPs purified through a 30% sucrose cushion at 180,000 g; CPs separated by SDS-PAGE and the His-tag detected with Ni-NTA-Nanogold (Goldiblot His-tag Western blot); the assembly is templated on RNA; both purified.
The target is the same in experiment [3]. In words: Ni-NTA-Nanogold TEM; mixed VLPs of rCP-His and native CP on gRNA deposited on grids, 10 nm Ni-NTA-Nanogold added for 30 min at room temperature, washed with 8 mM imidazole, negative stain; not quantitative by the paper's words; both purified.

For “potato virus X (PVX) coat protein (CP), native (from UniProt P07699 1-237)”, in experiment [1], the binding entry is reported as “binds”.

With “recombinant PVX coat protein with N-terminal 9xHis-tag (rCP-His) (from UniProt P07699 1-237)”, the binding result in experiment [2] and in experiment [3] was “binds” in each case.
